In publication PMC6895207:
No constants are given. Whether binding was seen depends on the method and setting.

Biological target: SPOR domain of rare lipoprotein A (RlpA) from P. aeruginosa, wild type (Pseudomonas aeruginosa PAO1) (UniProt Q9X6V6)
Assay: native MS; non-denaturing electrospray MS (MicrOTOF-QII) of the domain alone, 20 μM, in 1 M ammonium acetate, pH 6.6; both purified

B1: SPOR domain of rare lipoprotein A (RlpA) from P. aeruginosa, wild type (domain or fragment, UniProt Q9X6V6 264-342)
chain: ADGLYLQVGAFANPDAAELLKAKLSGVTAAPVFISSVVRNQQILHRVRLGPIGSADEVSRTQDSIRVANLGQPTLVRPD
binding: no binding (tested: 20 μM)
